Data as given in PubChem BioAssay AID686938 (Drosophila RNAi Screening Center, 2013).

- Aim: 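Looking for CRAC channel components and the factors controlling them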 (primary screen)
- Cell system: Drosophila S2R+ cells
- Reagent: long dsRNA against Drosophila genes, about 0.25 µg dsRNA per well, roughly 10,000 cells
- Timing: 5 days of knock-down before the calcium assay
- Conditions: thapsigargin (SERCA pump blocker) to empty calcium stores; entry signal taken 4 min after adding it
- Measurement: 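Duplicate raw fluo-4 intensities per well from a plate reader, at rest and four minutes after thapsigargin emptied calcium stores; entry-to-rest ratio filled for only some wells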
- Reading the numbers: calcium entry signal: higher = stronger calcium signal after store depletion; entry to resting ratio: higher = more calcium entry relative to resting level; resting calcium signal: higher = higher resting calcium signal
- Units: calcium entry signal in fluorescence units; resting calcium signal in fluorescence units
- Hit rule: 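Hit if the duplicate-averaged plate z-score for entry over resting signal is under −3; wells with weak total dye signal (Fmax z < −2) or more than 5 off-targets removed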
- Calls: active = strongly reduced calcium entry; inactive = no strong reduction
The deposit covers about 23,000 reagents; below is an unselected part of those that have a named target and a result. Of all reagents, 75 (0.33%) are marked active. 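Raw plate signals without normalisation; calls rest on plate z-scores that were not deposited; ratio present for only 364 wells.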 Names joined by + are all predicted targets of the reagent. Reagent sequences are not shown. Not stated in the record: the dose of the treatment.

predicted target | dsRNA | calcium entry signal, replicate 1 | calcium entry signal, replicate 2 | entry to resting ratio | resting calcium signal, replicate 1 | resting calcium signal, replicate 2 | Call
CG16863 (GeneID 34784) | DRSC01892 | 4.80e7 | 2.81e7 | – | 2.09e7 | 1.33e7 | inactive
spen (GeneID 44205) | DRSC00839 | 3.53e7 | – | – | 1.96e7 | – | inactive
CG31933 (GeneID 326176) | DRSC00457 | 3.01e7 | 3.84e7 | – | 1.57e7 | 1.71e7 | inactive
Prps (GeneID 39132) | DRSC08994 | 4.77e7 | 4.13e7 | – | 2.44e7 | 2.01e7 | inactive
Prps (GeneID 39132) | DRSC10707 | 2.77e7 | 4.31e7 | – | 1.64e7 | 2.24e7 | inactive
Prps (GeneID 39132) | DRSC10708 | 2.78e7 | 4.25e7 | – | 1.67e7 | 2.20e7 | inactive
Rab9Fb (GeneID 32029) | DRSC19854 | 3.63e7 | 4.37e7 | – | 1.75e7 | 1.93e7 | inactive
Sos (GeneID 34790) | DRSC03439 | 3.63e7 | 2.46e7 | – | 1.72e7 | 1.32e7 | inactive
Gyg (GeneID 37419) | DRSC03850 | 2.03e7 | 4.47e7 | – | 1.14e7 | 1.74e7 | inactive
Gyg (GeneID 37419) | DRSC04556 | 2.90e7 | 4.24e7 | – | 1.56e7 | 1.87e7 | inactive
Pef (GeneID 36111) | DRSC06695 | 4.57e7 | 4.08e7 | – | 1.88e7 | 1.90e7 | inactive
scro (GeneID 3355151) | DRSC17099 | 3.33e7 | 3.31e7 | – | 1.53e7 | 1.42e7 | inactive
scro (GeneID 3355151) | DRSC17102 | 5.75e7 | 6.06e7 | 2.4 | 2.38e7 | 2.20e7 | inactive
yellow-g2 (GeneID 38295) | DRSC08338 | 3.02e7 | 4.32e7 | – | 1.62e7 | 1.98e7 | inactive
Idgf2 (GeneID 34979) | DRSC03350 | 3.66e7 | – | – | 1.95e7 | – | inactive
CG2921 (GeneID 37515) | DRSC04324 | 3.02e7 | – | – | 1.49e7 | – | inactive
CG42531 (GeneID 8673972) | DRSC05318 | 5.63e7 | 2.96e7 | – | 2.28e7 | 1.23e7 | inactive
Ca-beta (GeneID 34557) | DRSC02406 | 3.87e7 | 6.08e7 | – | 1.96e7 | 2.46e7 | inactive
Ca-beta (GeneID 34557) | DRSC02407 | 3.77e7 | 5.20e7 | – | 1.90e7 | 2.01e7 | inactive
Ca-beta (GeneID 34557) | DRSC03285 | 3.50e7 | 7.34e7 | – | 1.80e7 | 2.62e7 | inactive
Ca-beta (GeneID 34557) | DRSC21432 | 4.31e7 | 3.62e7 | – | 2.57e7 | 1.75e7 | inactive
ed (GeneID 33619) | DRSC00350 | 4.37e7 | – | – | 2.42e7 | – | inactive
ed (GeneID 33619) | DRSC00438 | 3.72e7 | 4.18e7 | – | 1.89e7 | 1.88e7 | inactive
ed (GeneID 33619) | DRSC00439 | 3.82e7 | 4.10e7 | – | 1.83e7 | 1.87e7 | inactive
ed (GeneID 33619) | DRSC00478 | 3.84e7 | 4.05e7 | – | 1.83e7 | 1.85e7 | inactive
CG3999 (GeneID 41253) | DRSC15534 | 2.88e7 | 2.60e7 | – | 1.52e7 | 1.48e7 | inactive
ND-51 (GeneID 33852) | DRSC03145 | 5.56e7 | – | – | 2.93e7 | – | inactive
VAChT (GeneID 42795) | DRSC13311 | 3.62e7 | 2.95e7 | – | 2.12e7 | 1.56e7 | inactive
VAChT (GeneID 42795) | DRSC16608 | 3.08e7 | 2.77e7 | – | 1.46e7 | 1.21e7 | inactive
CG15905 (GeneID 37257) | DRSC06591 | 3.61e7 | 5.07e7 | – | 1.61e7 | 2.21e7 | inactive
CG17928 (GeneID 35009) | DRSC02644 | 3.68e7 | 2.38e7 | – | 1.71e7 | 1.26e7 | inactive
Trim9 (GeneID 34453) | DRSC02242 | 3.74e7 | 4.48e7 | – | 1.77e7 | 2.00e7 | inactive
CG15145 (GeneID 35064) | DRSC02446 | 4.57e7 | 3.37e7 | – | 2.06e7 | 1.66e7 | inactive
ppk13 (GeneID 3346226) | DRSC02382 | 6.15e7 | 4.78e7 | – | 2.82e7 | 2.02e7 | inactive
IRSp53 (GeneID 39258) | DRSC10891 | 2.60e7 | 4.42e7 | – | 1.38e7 | 1.94e7 | inactive
kirre (GeneID 31292) | DRSC18785 | 3.92e7 | 5.73e7 | 2 | 1.95e7 | 2.37e7 | inactive
Hexo2 (GeneID 31808) | DRSC18671 | 3.41e7 | 3.86e7 | – | 1.71e7 | 1.78e7 | inactive
CG13884 (GeneID 38064) | DRSC08354 | 4.05e7 | 4.50e7 | – | 2.02e7 | 1.99e7 | inactive
CG14752 (GeneID 35840) | DRSC06488 | 4.38e7 | 3.89e7 | – | 1.97e7 | 1.68e7 | inactive
Fie (GeneID 38452) | DRSC08158 | 5.14e7 | 3.62e7 | – | 3.26e7 | 1.58e7 | inactive
CG13713 (GeneID 59233) | DRSC08322 | 2.63e7 | 3.35e7 | – | 1.21e7 | 1.36e7 | inactive
Trs23 (GeneID 34197) | DRSC03190 | 3.88e7 | 4.58e7 | – | 1.81e7 | 1.90e7 | inactive
Grp170 (GeneID 31215) | DRSC18524 | 4.00e7 | 4.07e7 | – | 1.91e7 | 2.02e7 | inactive
chn (GeneID 36678) | DRSC06086 | 3.81e7 | 3.00e7 | – | 1.79e7 | 1.46e7 | inactive
mtg (GeneID 40970) | DRSC16256 | 5.04e7 | 3.73e7 | – | 2.21e7 | 1.69e7 | inactive
CG1440 (GeneID 31776) | DRSC17915 | 3.98e7 | 3.73e7 | – | 1.70e7 | 1.62e7 | inactive
Mtpalpha (GeneID 34276) | DRSC01994 | 4.66e7 | – | – | 2.12e7 | – | inactive
Gpat4 (GeneID 37852) | DRSC04345 | 4.29e7 | – | – | 2.02e7 | – | inactive
sPLA2 (GeneID 35665) | DRSC06041 | 5.18e7 | 4.20e7 | – | 2.40e7 | 1.83e7 | inactive
ValRS-m (GeneID 39023) | DRSC10535 | 3.96e7 | 4.50e7 | – | 1.81e7 | 1.80e7 | inactive
Cyp12e1 (GeneID 41272) | DRSC16622 | 3.03e7 | 3.31e7 | – | 1.43e7 | 1.63e7 | inactive
Culd (GeneID 38946) | DRSC10262 | 3.02e7 | 2.05e7 | – | 2.29e7 | 8.52e6 | inactive
Fmo-2 (GeneID 35561) | DRSC04983 | 5.28e7 | – | – | 2.55e7 | – | inactive
tin (GeneID 42536) | DRSC17083 | 2.04e7 | 2.39e7 | – | 2.79e7 | 9.89e6 | inactive
tin (GeneID 42536) | DRSC22853 | 2.59e7 | 4.94e7 | – | 1.21e7 | 2.11e7 | inactive
tin (GeneID 42536) | DRSC23248 | 3.28e7 | 3.65e7 | – | 1.73e7 | 1.67e7 | inactive
CG3502 + CG9863 | DRSC04578 | 3.61e7 | 3.41e7 | – | 1.96e7 | 1.61e7 | inactive
CCDC151 (GeneID 39345) | DRSC10131 | 3.29e7 | 3.66e7 | – | 1.63e7 | 1.55e7 | inactive

Records above whose target name begins with V or v (3):
predicted target | dsRNA | calcium entry signal, replicate 1 | calcium entry signal, replicate 2 | entry to resting ratio | resting calcium signal, replicate 1 | resting calcium signal, replicate 2 | Call
VAChT (GeneID 42795) | DRSC13311 | 3.62e7 | 2.95e7 | – | 2.12e7 | 1.56e7 | inactive
VAChT (GeneID 42795) | DRSC16608 | 3.08e7 | 2.77e7 | – | 1.46e7 | 1.21e7 | inactive
ValRS-m (GeneID 39023) | DRSC10535 | 3.96e7 | 4.50e7 | – | 1.81e7 | 1.80e7 | inactive
